Some peptides are written in HELM: one residue between dots, names in brackets for other building blocks, links after the first $.
Test: Fmoc solid-phase peptide synthesis; PepSyn-KA pre-derivatised with the FMOC C-terminal amino acid; 4-(2',4'-dimethoxyphenyl-Fmoc-aminomethyl)phenoxy resin; pre-formed Fmoc-amino acid Pfp esters / dihydroxybenzotriazole esters; DIC/HOBt
Settings: whole synthesis, reverse-phase HPLC on Dynamax C8 300A analytical column, scale 0.5 mmol

With “PEPTIDE1{[ac].Q.A.T.N.R.N.T.D.G.S.T.D.Y.G.I.L.Q.I.N.S.R.[am]}$$$$V2.0” the “final HPLC purity” value was over 99%.
